Laboratory results taken from US20250179114A1.

The chains behind the UniProt entries cited, without tags or fusion partners.
UniProt P04150, whole entry: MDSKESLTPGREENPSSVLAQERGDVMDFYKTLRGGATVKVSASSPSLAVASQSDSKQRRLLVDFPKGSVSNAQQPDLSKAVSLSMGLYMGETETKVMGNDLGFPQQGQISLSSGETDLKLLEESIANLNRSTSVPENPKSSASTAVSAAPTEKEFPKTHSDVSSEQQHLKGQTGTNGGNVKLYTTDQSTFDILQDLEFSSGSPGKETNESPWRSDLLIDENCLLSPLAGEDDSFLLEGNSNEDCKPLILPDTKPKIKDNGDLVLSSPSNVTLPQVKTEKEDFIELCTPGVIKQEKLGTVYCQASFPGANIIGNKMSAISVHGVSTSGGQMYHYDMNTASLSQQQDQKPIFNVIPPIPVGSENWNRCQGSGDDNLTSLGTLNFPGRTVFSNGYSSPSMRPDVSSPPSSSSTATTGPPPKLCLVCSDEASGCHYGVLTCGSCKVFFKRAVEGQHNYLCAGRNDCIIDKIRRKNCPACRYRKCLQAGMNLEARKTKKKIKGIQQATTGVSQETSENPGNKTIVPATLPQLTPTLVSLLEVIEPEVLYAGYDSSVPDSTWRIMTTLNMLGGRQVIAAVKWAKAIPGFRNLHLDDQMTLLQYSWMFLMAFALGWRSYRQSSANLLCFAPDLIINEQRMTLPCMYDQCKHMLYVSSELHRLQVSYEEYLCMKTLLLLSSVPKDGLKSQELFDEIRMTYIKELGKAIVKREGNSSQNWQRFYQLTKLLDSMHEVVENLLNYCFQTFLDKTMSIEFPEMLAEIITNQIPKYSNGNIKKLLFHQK

Assays:
[1] = molecular target: glucocorticoid receptor (Homo sapiens, UniProt P04150); assay: Activity assay of glucocorticoid receptor reporter gene GRE; format: cell-based; details: read-out: EC50 (nM), glucocorticoid receptor reporter gene GRE activity; HEK293 cells transfected with pGL5 and pBIND-GR; 24 h; Dual-Glo luciferase
[2] = molecular target: GR (Homo sapiens, UniProt P04150); assay: GR luciferase reporter gene elution experiment; details: supernatant removed and washed, then 24 h

EC50 [1]: 0.3 nM
Elution time (Act %) 15 min ([2]; incubation 15 min): 32.9%
Elution time (Act %) 30 min ([2]; incubation 30 min): 29.2%
Elution time (Act %) 1 h ([2]; incubation 1 h): 28.7%
Elution time (Act %) 2 h ([2]; incubation 2 h): 23.8%
Elution time (Act %) 4 h ([2]; incubation 4 h): 32.2%
Compound: C[C@]12C=CC(=O)C=C1CC[C@H]1[C@@H]3C[C@H]4O[C@@H](c5ccc(Cc6cccc(N)c6)s5)O[C@@]4(C(=O)CO)[C@@]3(C)C[C@H](O)[C@@]12F

The structures given here were assigned with low confidence; some may be wrong.
